Results as given in patent US8128948B1, “Compositions and methods for attracting Anastrepha species” (The United States of America as represented by the …, priority 2007, dated 2012).
At least one compound was matched to its structure with a doubt left.

Experiment: Aqueous equilibrium between acid and lactone forms
Type: physicochemical

Structure (SMILES)	aqueous equilibrium distribution between the acid and the lactone forms
C=C[C@@]1(C)CCC[C@]2(C)OC(=O)C[C@@H]12 [anastrephin, reference compound]	~100 acid:1 lactone
C=CC1(C)CCCC2(C)OC(=O)CC12 (centres unmarked) [epianastrephin, reference compound]	~100 acid:1 lactone
